For data set [1], the system named is APP/PS1 mice. The experiment in a line: Control tests (open field, sensory threshold, visible platform) in APP/PS1 mice. It is filed as in vivo, mouse. To be noted: 2.5 mg/kg, daily, oral gavage.
Data set [2] relates to APP/PS1 mice. The experiment in a line: Fear conditioning (contextual and cued) in APP/PS1 mice. As to conditions: 2.5 mg/kg, daily, oral gavage.

Molecules are shown by their SMILES. Some compounds share one wording; it may come from a single statement.

The text below walks through data of patent publication US11149020B2, “MAP kinase modulators and uses thereof” (The Trustees of Columbia University in the City of New York, priority 2013, dated 2021).

In the case of `CN1CCN(c2cc(-c3ccncc3)c(-c3ccc4ccccc4c3)nn2)CC1` [27 (MW-150), 6-(4-methylpiperazine-1-yl)-3-(naphthalen-2-yl)-4-(pyridin-4-yl)pyridazine], in the data set on APP/PS1 mice [1], the “open field and sensory threshold in APP/PS1 mice” value (“open field and sensory threshold” below) is “do not affect anxiety status of the animal and its ability to feel the noxious stimulus”; the “visible platform performance in APP/PS1 mice” value (“visible platform performance” below) is “do not affect performance with visible platform tasks”. In addition, the “cued fear memory in APP/PS1 mice” value in the data set on APP/PS1 mice [2] is on record as “do not affect cued fear memory”.

For `c1ccc2cc(-c3nnc(C4CC4)cc3-c3ccncc3)ccc2c1` [9 (MW-125), 6-Cyclopropyl-4-(pyridin-4-yl)-3-(naphthalen-2-yl)pyridazine], in the data set with APP/PS1 mice [1], the “open field and sensory threshold” value is “do not affect anxiety status of the animal and its ability to feel the noxious stimulus”; the “visible platform performance” value is given as “do not affect performance with visible platform tasks”. Moreover, the “cued fear memory in APP/PS1 mice” value in the data set with APP/PS1 mice [2] is given as “do not affect cued fear memory”.

For `c1ccc2c(-c3nnc(C4CC4)cc3-c3ccncc3)cccc2c1` [7 (MW-077), 6-cyclopropyl-3-(naphthalen-1-yl)-4-(pyridin-4-yl)pyridazine], in the data set on APP/PS1 mice [1], the “open field and sensory threshold” value is “do not affect anxiety status of the animal and its ability to feel the noxious stimulus”; the “visible platform performance” value is on record as “do not affect performance with visible platform tasks”. Also, in the data set with APP/PS1 mice [2], the “cued fear memory in APP/PS1 mice” value was “do not affect cued fear memory”.
